The assay has as its target SIRT1 (UniProt Q96EB6). The experiment in a line: co-IP.

Chains of the proteins cited; added tags and fusions are not shown.
UniProt Q96EB6: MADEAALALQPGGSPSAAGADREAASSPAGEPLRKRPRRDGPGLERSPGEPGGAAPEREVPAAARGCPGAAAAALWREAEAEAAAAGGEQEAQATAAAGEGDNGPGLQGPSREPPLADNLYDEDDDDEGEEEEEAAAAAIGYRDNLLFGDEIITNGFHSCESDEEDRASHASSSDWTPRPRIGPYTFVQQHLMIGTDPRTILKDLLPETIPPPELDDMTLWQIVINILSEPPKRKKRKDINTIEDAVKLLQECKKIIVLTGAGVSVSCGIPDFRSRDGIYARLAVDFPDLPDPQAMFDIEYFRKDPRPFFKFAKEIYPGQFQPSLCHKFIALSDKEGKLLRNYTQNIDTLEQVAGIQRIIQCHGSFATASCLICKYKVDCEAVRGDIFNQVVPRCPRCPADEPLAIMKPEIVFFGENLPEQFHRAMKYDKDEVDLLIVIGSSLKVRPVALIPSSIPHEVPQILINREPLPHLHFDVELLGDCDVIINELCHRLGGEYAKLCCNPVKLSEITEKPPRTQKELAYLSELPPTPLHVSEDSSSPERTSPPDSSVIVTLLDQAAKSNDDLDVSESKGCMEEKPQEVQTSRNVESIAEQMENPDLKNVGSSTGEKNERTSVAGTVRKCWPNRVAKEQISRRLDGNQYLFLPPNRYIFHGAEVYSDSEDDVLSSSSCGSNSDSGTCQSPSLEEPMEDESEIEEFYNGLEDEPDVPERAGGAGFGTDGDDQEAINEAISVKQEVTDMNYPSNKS
UniProt Q15022: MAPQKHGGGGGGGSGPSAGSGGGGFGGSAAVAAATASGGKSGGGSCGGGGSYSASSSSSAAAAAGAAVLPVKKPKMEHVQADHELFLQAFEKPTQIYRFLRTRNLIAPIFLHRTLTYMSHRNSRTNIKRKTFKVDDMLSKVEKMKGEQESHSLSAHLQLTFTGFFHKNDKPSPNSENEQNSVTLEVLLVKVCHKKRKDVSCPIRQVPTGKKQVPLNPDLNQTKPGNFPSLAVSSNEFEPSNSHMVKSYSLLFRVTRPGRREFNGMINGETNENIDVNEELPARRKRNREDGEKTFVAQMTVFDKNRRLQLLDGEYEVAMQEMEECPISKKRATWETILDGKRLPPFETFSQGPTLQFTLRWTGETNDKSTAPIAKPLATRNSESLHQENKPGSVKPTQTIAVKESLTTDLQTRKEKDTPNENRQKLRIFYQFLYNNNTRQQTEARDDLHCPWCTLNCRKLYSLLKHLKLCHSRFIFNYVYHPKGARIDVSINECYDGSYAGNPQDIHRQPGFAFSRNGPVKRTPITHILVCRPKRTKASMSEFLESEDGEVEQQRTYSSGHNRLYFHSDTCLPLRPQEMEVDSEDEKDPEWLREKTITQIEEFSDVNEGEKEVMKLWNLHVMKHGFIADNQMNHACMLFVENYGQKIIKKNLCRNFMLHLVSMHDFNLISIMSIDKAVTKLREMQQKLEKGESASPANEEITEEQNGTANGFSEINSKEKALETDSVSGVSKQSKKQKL

No constants are given. Whether binding was seen depends on the method and setting. Binding seen in cells or lysates may run through a third protein. Some results given as binding are weak or reduced against the parent protein; the word gives no strength.

For “SUZ12 (PRC2 complex subunit) (from UniProt Q15022 1-739)”, the binding result is “binds”.
